In patent publication US5456923A, “Method of manufacturing solid dispersion” (priority 1991, dated 1995):
Converted amounts (≈) assume the structure as drawn.

Test: physchem
Conditions: jp test solution 2

**Q.** For `COC(=O)C1=C(C)NC(C)=C(C(=O)OC)C1c1ccccc1[N+](=O)[O-]` [nifedipine], which solubility at 24 h is on record?
**A.** 5.6 µg/mL (≈ 16.2 µM)
